Data from PubChem BioAssay AID529 (NMMLSC, 2006).
In all, about 24,000 compounds went through this assay and about 50 (0.2%) were called active. The shares of active, inactive and inconclusive entries below differ from those in the screen.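 How the source made its calls: active means inhibition above 50%; inconclusive means compound itself fluorescent, judged against control cell fluorescence; inactive means the rest.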

The chains behind the UniProt entries cited, without tags or fusion partners.
UniProt P13612, whole entry, looked up: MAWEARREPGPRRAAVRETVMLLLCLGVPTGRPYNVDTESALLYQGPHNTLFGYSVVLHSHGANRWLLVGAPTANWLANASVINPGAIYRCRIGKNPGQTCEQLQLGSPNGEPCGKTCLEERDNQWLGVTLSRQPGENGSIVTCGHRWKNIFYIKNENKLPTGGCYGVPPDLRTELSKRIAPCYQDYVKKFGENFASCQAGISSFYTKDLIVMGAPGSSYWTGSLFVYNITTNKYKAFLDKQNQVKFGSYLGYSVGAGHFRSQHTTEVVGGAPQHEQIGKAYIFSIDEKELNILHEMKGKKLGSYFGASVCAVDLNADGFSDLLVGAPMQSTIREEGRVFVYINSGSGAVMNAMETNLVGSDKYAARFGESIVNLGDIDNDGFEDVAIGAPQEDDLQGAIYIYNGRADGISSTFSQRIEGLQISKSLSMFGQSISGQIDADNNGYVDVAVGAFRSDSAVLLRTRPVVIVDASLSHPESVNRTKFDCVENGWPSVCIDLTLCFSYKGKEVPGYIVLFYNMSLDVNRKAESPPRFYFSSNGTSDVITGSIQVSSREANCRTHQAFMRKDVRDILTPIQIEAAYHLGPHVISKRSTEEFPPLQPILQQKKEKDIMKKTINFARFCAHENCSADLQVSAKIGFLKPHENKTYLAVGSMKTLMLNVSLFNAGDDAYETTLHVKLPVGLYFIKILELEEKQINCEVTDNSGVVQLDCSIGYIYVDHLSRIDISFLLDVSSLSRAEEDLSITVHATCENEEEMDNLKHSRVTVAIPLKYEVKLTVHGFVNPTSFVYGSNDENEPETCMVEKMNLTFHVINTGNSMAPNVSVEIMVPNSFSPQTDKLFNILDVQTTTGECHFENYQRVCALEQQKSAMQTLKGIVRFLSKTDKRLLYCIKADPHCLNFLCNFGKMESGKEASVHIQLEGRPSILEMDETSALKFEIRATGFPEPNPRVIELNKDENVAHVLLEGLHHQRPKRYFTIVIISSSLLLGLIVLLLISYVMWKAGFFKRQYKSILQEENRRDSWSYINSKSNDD

These compounds were tested against Integrin alpha-4 (Homo sapiens) (UniProt P13612) (assay: blockers of LDV-FITC ligand binding on VLA-4 – Jurkat cells, Mn2+ activated, primary screen (AID 529;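 on inhibition: 0% = Mn2+ stimulated cells lacking compound and 100% = ligand binding without Mn2+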)). Details: LDV-FITC binding with Mn2+, flow cytometry; active compounds read high, screened at 10 µM (by protocol), 100% = Mn2+-driven binding gain fully reversed unless noted.
In the case of `CN(C(=O)CSc1nc2c(c(=O)[nH]1)CCCC2)C1CCCCC1`, the inhibition is reported as “inconclusive”.
For `CC1(C)Cc2ccccc2C(N)=C1C#N`, the inhibition was inactive: -16.5%.
With `CSc1cccc(NC(=O)C2CCCN2S(=O)(=O)c2ccc3c(c2)CCC(=O)N3)c1` (stereo unspecified) the inhibition was “inconclusive”.
`COc1ccc(N2CSC3=C(C#N)C(c4cc(OC)ccc4OC)CC(=O)N3C2)c(OC)c1` (stereo unspecified) was tested, and the inhibition was “inconclusive”.
In the case of `O=C1NC(c2ccccn2)Nc2sc3c(c21)CCC3` (stereo unspecified), the inhibition is reported as “inconclusive”.
With `Cc1ccc(C)c(S(=O)(=O)C(C#N)c2nc3ccccc3nc2N2CC(C)OC(C)C2)c1` (stereo unspecified) the inhibition was “inconclusive”.
`COc1ccc(Cl)cc1NC(=O)c1nc2nc(C)cc(C(F)F)n2n1` was tested, and the inhibition was inactive: -26%.
For `O=C(Nc1nonc1NC(=O)C1CCCCC1)C1CCCCC1`, the inhibition was inactive: -11%.
For `Cc1cc(-n2c(SCC(=O)NCc3cccs3)nc3n[nH]c(C)c3c2=N)ccc1Cl`, the inhibition was “inconclusive”.
In the case of `Cn1c(Cn2c(=O)sc3ccccc32)nnc1SCC(=O)Nc1ccccc1`, the inhibition is reported as “inconclusive”.
With `CCOC(=O)N1CCC(NC(=O)c2ccc(CNS(=O)(=O)c3ccc(F)cc3)cc2)CC1` the inhibition was inactive: 15%.
`O=C(CSc1nnc2c3cc(F)ccc3nc(-c3ccccc3)n12)N1CCOCC1` was tested, and the inhibition was inactive: -27%.
In the case of `O=C(CCCn1ncn2c(cc3occc32)c1=O)N1CCc2ccccc2C1`, the inhibition is reported as “inconclusive”.
`CSc1nnc(Cn2c(=O)sc3ccccc32)n1C` was tested, and the inhibition was “inconclusive”.
`Cc1cc2cc(CCNS(C)(=O)=O)c(=O)[nH]c2cc1C` was tested, and the inhibition was “inconclusive”.
With `CC1=C(C(=O)Nc2ccccc2C)C(c2ccc(C)o2)N2C(=O)CSC2=N1` (stereo unspecified) the inhibition was inactive: -5%.
With `CCCC(=O)Nc1sc(C(=O)OC)c(C)c1C(N)=O` the inhibition was “inconclusive”.
For `CC(C)(O)C#Cc1ccc(C(=O)NCc2cccs2)s1`, the inhibition was “inconclusive”.
In the case of `CCOC(=O)CN(C)Cc1c[nH]c2ccccc12`, the inhibition is reported as “inconclusive”.
In the case of `CCOC(=O)C1CCN(C(=O)c2ccc(Cl)c(Cl)c2)CC1`, the inhibition is reported as “inconclusive”.
In the case of `Cc1ccc2[nH]c(=O)c(-c3noc(C(C)C)n3)cc2c1`, the inhibition is reported as “inconclusive”.
With `O=C(N1CCN(Cc2ccccc2)CC1)C12CC3CC(CC(C3)C1)C2` the inhibition was inactive: -2%.
With `Cc1ccccc1NC(=O)c1ccc(F)c(S(=O)(=O)N2CCN(c3ccccn3)CC2)c1` the inhibition was “inconclusive”.
In the case of `COC(=O)CSc1nc2sc3c(c2c(=O)n1C1CCCCC1)CCN(C)C3`, the inhibition is reported as inactive: 4.5%.
`c1ccc2c(c1)nc(N1CCOCC1)c1nnnn12` was tested, and the inhibition was “inconclusive”.
In the case of `Cc1oc(-c2ccccc2F)nc1CS(=O)(=O)CC(=O)N1CCc2ccccc21`, the inhibition is reported as “inconclusive”.
For `CC1(C(=O)CSc2nc3ccccc3s2)CCC(=O)O1` (stereo unspecified), the inhibition was “inconclusive”.
In the case of `Cc1ccc2nc(SC(C)C(=O)N3CCCC3)[nH]c2c1` (stereo unspecified), the inhibition is reported as “inconclusive”.
In the case of `O=C1c2ccccc2-c2nccnc21`, the inhibition is reported as inactive: -17%.
`CCN1CCN(C(=O)c2ccc3c(=O)n(CCC4=CCCCC4)c(=O)[nH]c3c2)CC1` was tested, and the inhibition was “inconclusive”.
In the case of `Cc1ccccc1-c1nc(CS(=O)CC(=O)NCc2ccccc2)c(C)o1` (stereo unspecified), the inhibition is reported as “inconclusive”.
For `COc1cc2c(cc1OC)C(C(=O)O)C(c1cc(Br)c(O)c(OC)c1)N(C)C2=O` (stereo unspecified), the inhibition was “inconclusive”.
`O=C(CN1CCC(O)(c2ccc3c(c2)OCO3)CC1)OC1CCCCC1` was tested, and the inhibition was inactive: -9.7%.
With `CCOc1cc2[nH]c(=O)n(Cc3ccc(C(=O)NCCOC)cc3)c(=O)c2cc1OCC` the inhibition was “inconclusive”.
In the case of `COc1ccc(NC(=O)c2ccc3c(=O)n(Cc4ccco4)c(=S)[nH]c3c2)c(OC)c1`, the inhibition is reported as “inconclusive”.
With `O=C(NCCCN1CCN(c2ccccc2F)CC1)C1CCN(S(=O)(=O)c2cccs2)CC1` the inhibition was “inconclusive”.
For `CC(C)NC(=O)c1ccc2c(=O)n(C3CCCC3)c(=S)[nH]c2c1`, the inhibition was “inconclusive”.
With `CC1CCCN(C(C(=O)Nc2ccc3c(c2)OCO3)c2ccccc2)C1` (stereo unspecified) the inhibition was inactive: 12%.
With `CCCN1Cc2cccc(C(=O)Nc3ccc(N4CCN(CC)CC4)cc3)c2C1=O` the inhibition was inactive: -2%.
For `CC(C)CCNC(=O)NC(=O)CSc1nnc(-c2ccccc2F)n1N`, the inhibition was “inconclusive”.
In the case of `CCOc1ccc2nc(N3CCC(C(=O)N4CCN(c5ccccn5)CC4)CC3)sc2c1`, the inhibition is reported as active: 53.6%.
For `O=C1OCc2cc(NC(=O)C3COc4ccccc4O3)ccc21` (stereo unspecified), the inhibition was “inconclusive”.
For `CCOc1nc(C#N)nc(N2CCCCC2)n1`, the inhibition was “inconclusive”.
In the case of `O=C1C2CCCN2C(c2ccc(Cl)cc2)N1c1nccs1` (stereo unspecified), the inhibition is reported as inactive: -12%.
In the case of `COc1ccc(-c2oc3ncn(CCN4CCOCC4)c(=N)c3c2-c2ccc(OC)cc2)cc1`, the inhibition is reported as inactive: 2.3%.
For `COc1ccc(CCNC(=O)C2CCN(S(=O)(=O)c3cc(OC)ccc3OC)CC2)cc1`, the inhibition was inactive: -38%.
`O=C(CSc1nc2c(cnn2-c2ccccc2)c(=O)[nH]1)N1CCOCC1` was tested, and the inhibition was “inconclusive”.
With `Cc1ccc(-c2nc(-c3ccccc3)no2)c(Cl)c1` the inhibition was “inconclusive”.
With `CC(CCc1ccco1)NC(=O)Cn1ncc2c1-c1ccccc1OC2` (stereo unspecified) the inhibition was inactive: -9.3%.
`Nc1nc(C(=O)N2CCOCC2)nn1S(=O)(=O)c1ccc(Cl)cc1` was tested, and the inhibition was inactive: -6%.
`CCOc1ccc2nc(NC(=O)C(CCSC)NS(=O)(=O)c3cccs3)sc2c1` (stereo unspecified) was tested, and the inhibition was “inconclusive”.
With `CN(C)CCCNC(CC(=O)Nc1ccc(Cl)cc1)C(=O)O` (stereo unspecified) the inhibition was inactive: -3%.
With `COc1ccc(C2C=C(C)Nc3nc(SC)nn32)cc1` (stereo unspecified) the inhibition was “inconclusive”.
In the case of `COC(=O)c1ccc(CSc2nc3ccccc3s2)o1`, the inhibition is reported as inactive: -4%.
For `COc1ccc(-c2noc(CCC(=O)NCCCN3CCC(Cc4ccccc4)CC3)n2)cc1`, the inhibition was inactive: 8.7%.
For `CS(=O)(=O)N(CC(=O)N1CCCCCC1)c1ccc(Br)cc1`, the inhibition was inactive: -20%.
In the case of `COc1ccc(-c2nc(CS(=O)CC(=O)NCc3ccc4c(c3)OCO4)c(C)o2)cc1` (stereo unspecified), the inhibition is reported as “inconclusive”.
In the case of `CCOc1ccccc1CNC(=O)c1cc2occc2n1C`, the inhibition is reported as “inconclusive”.
`CCn1c(N)c(C(=O)NCC2CCCO2)sc1=S` (stereo unspecified) was tested, and the inhibition was inactive: -7%.
In the case of `COc1cccc(C(=O)CSc2nnc(-c3cc(OC)c(OC)c(OC)c3)o2)c1`, the inhibition is reported as “inconclusive”.
In the case of `O=C(Cc1coc(-c2ccc(F)cc2)n1)NC1CCCCC1`, the inhibition is reported as inactive: 1%.
For `CC(=O)N1CCN(c2ccc(NC(=O)c3ccc(C(C)(C)C)cc3)cc2)CC1`, the inhibition was “inconclusive”.
With `Cc1noc(C)c1S(=O)(=O)NC1CCCc2ccccc21` (stereo unspecified) the inhibition was “inconclusive”.
With `COCCNC(=O)Cn1cnc2ccc(S(=O)(=O)N3CCC(C)CC3)cc2c1=O` the inhibition was “inconclusive”.
With `CN(C)c1nc(Oc2ccc(N)cc2)nc(N(C)C)n1` the inhibition was “inconclusive”.
In the case of `CCOC(=O)C(C)NC(=O)C(NC(=O)C1CCC(CC)CC1)C(C)C` (stereo unspecified), the inhibition is reported as “inconclusive”.
In the case of `O=C(CSC1=Nc2ccccc2C2=NC(c3ccccc3)C(=O)N12)NCC1CCCO1` (stereo unspecified), the inhibition is reported as inactive: 3% [active compounds read high, 100% = Mn2+-driven binding gain fully reversed, screened at 10 µM (by protocol)].
For `O=C(NCC12CC3CC(CC(C3)C1)C2)c1nn2c(c1Cl)NC(c1ccco1)CC2C(F)(F)F` (stereo unspecified), the inhibition was active: 55%.
In the case of `Cc1noc(/C=C/N(C)C)c1S(=O)(=O)N1CCN(c2ccccc2)CC1`, the inhibition is reported as inactive: -20%.
`O=C(c1cc2nc3c(c(C(F)(F)F)n2n1)CCc1ccccc1-3)N1CCN2CCCC2C1` (stereo unspecified) was tested, and the inhibition was inactive: -1%.
With `CCC(C(=O)NCCN1CCN(C)CC1)n1c(C)c2cnn(-c3ccccc3)c(=O)c2c1C` (stereo unspecified) the inhibition was “inconclusive”.
`N#CC1=C(N)SC(N)=C(C#N)C1c1ccnc2ccccc12` was tested, and the inhibition was “inconclusive”.
For `COc1cccc(-n2ccnc2SCC(=O)Nc2cc(OC)ccc2OC)c1`, the inhibition was “inconclusive”.
`Cc1cc(C)c(NC(=O)CN2CCN(C)CC2)c(C)c1` was tested, and the inhibition was “inconclusive”.
In the case of `O=c1nc(N2CCCC2)nc(Nc2ccccc2)[nH]1`, the inhibition is reported as inactive: -23%.
In the case of `CSC1=NCCN1C(=O)c1c(F)cccc1Cl`, the inhibition is reported as “inconclusive”.
`O=C(Nc1c(C(=O)O)oc2ccc(Br)cc12)c1ccccc1` was tested, and the inhibition was inactive: -20%.
With `CCOc1ccccc1C(=O)Nc1ccc2nc(N3CCN(c4ncccn4)CC3)cc(C)c2c1` the inhibition was “inconclusive”.
For `CCN(C(=O)CSc1nc2cc(C(=O)OC)ccc2c(=O)n1Cc1ccco1)c1cccc(C)c1`, the inhibition was “inconclusive”.
With `Cn1c(Cn2c(=O)sc3ccccc32)nnc1SCC(=O)N1CCCCCC1` the inhibition was “inconclusive”.
In the case of `Cc1nc2sc(C(c3ccc(F)cc3)N3CCOCC3)c(O)n2n1` (stereo unspecified), the inhibition is reported as “inconclusive”.
In the case of `O=S(=O)(NCC(c1cccnc1)N1CCN(c2ccc(F)cc2)CC1)c1cc(F)ccc1F` (stereo unspecified), the inhibition is reported as “inconclusive”.
With `COc1ccc(C2C(C(=O)O)c3ccccc3C(=O)N2C)cc1Br` (stereo unspecified) the inhibition was “inconclusive”.
In the case of `COC(=O)c1cccc(C(=O)Nc2cnc3ccccc3c2)n1`, the inhibition is reported as “inconclusive”.
`Cc1cccc(NC(=O)C2CCN(S(=O)(=O)c3cccs3)CC2)n1` was tested, and the inhibition was “inconclusive”.
In the case of `CCC(=O)NCCc1cc2cc(C)c(C)cc2[nH]c1=O`, the inhibition is reported as “inconclusive”.
`Cc1ccc(/C=c2\sc3nc(-c4ccccc4Br)nn3c2=O)o1` was tested, and the inhibition was “inconclusive”.
With `CCCCN=C(N)/C(C(=O)OCC)=C(\O)c1ccc(OC)cc1` the inhibition was inactive: 9% [active compounds read high, 100% = Mn2+-driven binding gain fully reversed, screened at 10 µM (by protocol)].
For `O=C(c1ccc(CS(=O)(=O)c2ccc(Br)cc2)o1)N1CCCC1`, the inhibition was “inconclusive”.
`Cc1csc(SCCn2c(N3CCCC3)nc3c2c(=O)[nH]c(=O)n3C)n1` was tested, and the inhibition was inactive: -11.3%.
For `CCCn1c(C)cc(C(=O)COc2ncnc3sccc23)c1C`, the inhibition was “inconclusive”.
`CC(C)NS(=O)(=O)c1cccc2nsnc12` was tested, and the inhibition was inactive: -10%.
In the case of `COc1ccc(Cc2nc(-c3cccs3)no2)cc1OC`, the inhibition is reported as “inconclusive”.
`Oc1ccccc1C1=Nc2nc3ccccc3n2C(c2ccccc2)C1` (stereo unspecified) was tested, and the inhibition was “inconclusive”.
`CCN1C(=O)/C(=C2\SC(N3CCCCC3)=NC2=O)c2ccccc21` was tested, and the inhibition was “inconclusive”.
For `Cc1oc(-c2ccccc2F)nc1CN1CCC(C(=O)NC2CC2)CC1`, the inhibition was “inconclusive”.
